# Reference: publication PMC12670160, “A drug-repurposing screen of FDA- and EMA-approved drugs identifies two NF-κB inhibitors active against eumycetoma” (Journal of Antimicrobial Chemotherapy, 2025)
# Screen size: about 5,300 compounds; about 130 (2.5%) showed an effect of 50% or more. The list shows a part of the results.
# System: M. mycetomatis strain mm55
# Conditions: primary screen, metabolic activity vs growth control; 96 h, 2 µM; inhibitor
row,Structure (SMILES),% viability [%]
1,"CO/N=C1\C[C@]2(C[C@@H]3C[C@@H](C/C=C(\C)C[C@@H](C)/C=C/C=C4\CO[C@@H]5[C@H](O)C(C)=C[C@@H](C(=O)O3)[C@]45O)O2)O[C@H](/C(C)=C/C(C)C)[C@H]1C [ONC0003943, moxidectin]",74.87
2,"Cc1oc2nc3c(c(NC(=O)CN4CCCC4=O)c2c1C)CCCC3 [ONC0001218, coluracetam]",81.81
3,"CC1(C)CCC(C)(C)c2cc(C#Cc3ccc(C(=O)O)cc3)ccc21 [ONC0001455, ec23]",116.5
4,"O=C1COc2c(CCNCCN(C(=O)CCNCCc3ccc(Cl)c(Cl)c3)C3CCCCC3)ccc(O)c2N1 [ONC0000934, az505 ditrifluoroacetate]",90.39
5,"O=C(/C=C/c1cccnc1)c1ccncc1 [ONC0001196, 3po]",95.93
6,"O=C(CN1CCNCC1)NC1CCCCC1 [ONC0003703, esaprazole]",104.4
7,"COC1CCN(C(=O)c2cc(Cc3n[nH]c(=O)c4ccccc34)ccc2F)CC1 [ONC0005270, azd2461]",114.9
8,"c1cncc(CN2CCC(n3ncc4c(N5CCOCC5)nc(-c5ccc6[nH]ccc6c5)nc43)CC2)c1 [ONC0005057, way600]",76.67
9,"CC(=O)N[C@@H](C=O)[C@@H](O)[C@H](O)[C@H](O)CO [ONC0003499, nacetyldglucosamine]",64.58
10,"Clc1cccc(Cl)c1CSc1nnc(-c2cnccn2)s1 [ONC0003064, yoda1]",80.91
11,"Cc1[nH]c2ccccc2c1CCNCc1ccc(/C=C/C(=O)NO)cc1 [ONC0001846, panobinostat]",73.7
12,"Cc1cc(C)c(S(=O)(=O)n2cc(C)cc2C)c(C)c1 [ONC0002489, hjc0350]",63.72
13,"Nc1ncnc2c1ncn2C1CCCO1 (stereo not drawn) [ONC0001543, sq22536]",113.4
14,"O=S1(=O)c2cccc3cccc(c23)N1CCCN1CCN(c2ccc(F)cc2)CC1 [ONC0002655, fananserin]",69.9
15,"OC[C@H]1O[C@H](O[C@H]2[C@H](O)[C@@H](O)[C@H](O)O[C@@H]2CO)[C@H](O)[C@@H](O)[C@@H]1O [ONC0000327, dmaltose]",54.64
16,"O=c1[nH]c(=O)c2ccccc2o1 [ONC0003927, carsalam]",73.55
17,"Nc1ccc(S(=O)(=O)Nc2ccccn2)cc1 [ONC0000610, sulfapyridine]",108.7
18,"CCN1CCC(n2cc(CNc3cc(Cl)c4ncc(C#N)c(Nc5ccc(F)c(Cl)c5)c4c3)nn2)CC1 [ONC0002075, cot inhibitor2]",82.04

# Taken from above:
# c1cncc(CN2CCC(n3ncc4c(N5CCOCC5)nc(-c5ccc6[nH]ccc6c5)nc43)CC2)c1 [ONC0005057, way600] – % viability [%]: 76.67
# Nc1ncnc2c1ncn2C1CCCO1 (stereo not drawn) [ONC0001543, sq22536] – % viability [%]: 113.4
